Consider 4 molecules from publication PMC7957176.

The chains behind the UniProt entries cited, without tags or fusion partners.
UniProt Q93009: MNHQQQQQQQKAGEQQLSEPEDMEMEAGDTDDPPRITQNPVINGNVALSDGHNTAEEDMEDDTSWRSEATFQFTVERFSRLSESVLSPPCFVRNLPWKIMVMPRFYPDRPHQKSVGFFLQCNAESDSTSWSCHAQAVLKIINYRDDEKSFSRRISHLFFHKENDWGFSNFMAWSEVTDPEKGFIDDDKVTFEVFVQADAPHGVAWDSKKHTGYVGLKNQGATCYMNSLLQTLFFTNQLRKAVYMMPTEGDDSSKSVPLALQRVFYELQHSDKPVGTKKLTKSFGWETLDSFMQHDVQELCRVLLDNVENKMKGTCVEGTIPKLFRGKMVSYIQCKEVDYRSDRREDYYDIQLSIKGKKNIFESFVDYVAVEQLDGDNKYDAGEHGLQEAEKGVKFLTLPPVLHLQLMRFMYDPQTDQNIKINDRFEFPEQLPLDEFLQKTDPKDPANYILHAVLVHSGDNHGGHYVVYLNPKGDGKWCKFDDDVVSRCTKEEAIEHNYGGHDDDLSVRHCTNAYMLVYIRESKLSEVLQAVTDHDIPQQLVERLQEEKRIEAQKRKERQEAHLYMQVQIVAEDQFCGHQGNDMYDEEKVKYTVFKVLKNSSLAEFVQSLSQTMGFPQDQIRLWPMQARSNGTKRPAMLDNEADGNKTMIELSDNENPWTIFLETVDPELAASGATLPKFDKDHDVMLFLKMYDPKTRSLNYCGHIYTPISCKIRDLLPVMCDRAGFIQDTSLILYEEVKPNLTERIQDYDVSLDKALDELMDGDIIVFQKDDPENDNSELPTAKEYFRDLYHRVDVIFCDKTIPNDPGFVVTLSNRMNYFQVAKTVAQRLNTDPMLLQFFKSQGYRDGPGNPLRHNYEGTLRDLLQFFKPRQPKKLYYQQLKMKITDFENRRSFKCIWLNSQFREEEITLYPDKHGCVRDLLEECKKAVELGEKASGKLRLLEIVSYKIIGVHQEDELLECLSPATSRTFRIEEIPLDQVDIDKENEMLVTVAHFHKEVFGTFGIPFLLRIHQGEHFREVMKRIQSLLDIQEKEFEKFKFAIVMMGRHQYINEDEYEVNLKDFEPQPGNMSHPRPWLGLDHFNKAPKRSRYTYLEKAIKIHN

These are yes or no findings as the source states them, for the method shown. For part of these data: Binding seen in cells or lysates may run through a third protein. Some entries that bind do so weakly or less than the wild type. For part of these data: Sequences can lack the tags named with a protein.

One assay concerns the target T1, Flag-ARMC5 (human) (UniProt Q96C12).
T1 sequence: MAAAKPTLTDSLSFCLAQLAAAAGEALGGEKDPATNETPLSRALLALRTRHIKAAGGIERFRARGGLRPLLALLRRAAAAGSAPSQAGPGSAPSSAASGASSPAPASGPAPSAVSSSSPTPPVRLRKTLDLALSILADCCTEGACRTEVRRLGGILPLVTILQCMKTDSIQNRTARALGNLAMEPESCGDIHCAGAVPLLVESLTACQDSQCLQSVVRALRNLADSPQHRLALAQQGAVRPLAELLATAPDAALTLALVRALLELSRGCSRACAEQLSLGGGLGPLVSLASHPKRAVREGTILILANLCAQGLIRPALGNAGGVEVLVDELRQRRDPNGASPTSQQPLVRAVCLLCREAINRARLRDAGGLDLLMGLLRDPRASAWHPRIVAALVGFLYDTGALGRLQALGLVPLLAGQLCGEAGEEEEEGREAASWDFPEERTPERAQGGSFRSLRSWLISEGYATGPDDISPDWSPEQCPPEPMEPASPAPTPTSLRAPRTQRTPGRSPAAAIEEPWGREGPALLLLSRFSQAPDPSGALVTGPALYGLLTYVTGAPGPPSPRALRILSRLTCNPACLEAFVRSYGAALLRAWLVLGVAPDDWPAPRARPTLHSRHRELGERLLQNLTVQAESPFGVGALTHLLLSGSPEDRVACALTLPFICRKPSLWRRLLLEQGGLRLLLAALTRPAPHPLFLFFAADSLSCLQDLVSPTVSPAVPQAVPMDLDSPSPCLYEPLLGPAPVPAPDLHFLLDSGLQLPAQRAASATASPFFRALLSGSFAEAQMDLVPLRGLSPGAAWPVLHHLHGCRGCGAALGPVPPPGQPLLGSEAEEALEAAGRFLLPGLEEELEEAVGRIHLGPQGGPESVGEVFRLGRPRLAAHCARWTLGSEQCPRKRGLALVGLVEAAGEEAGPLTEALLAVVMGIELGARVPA
The assay is described as follows: co-IP; cell lysates in RIPA buffer incubated with primary antibody pre-absorbed protein G sepharose beads at 4°C overnight, washed with RIPA buffer, Western blot. Background: Immunoblotting shows a protein as a band on a membrane.

Assay [1] has as its target T2, endogenous ARMC5 (human (endogenous in 786-O)) (UniProt Q96C12).
T2 sequence: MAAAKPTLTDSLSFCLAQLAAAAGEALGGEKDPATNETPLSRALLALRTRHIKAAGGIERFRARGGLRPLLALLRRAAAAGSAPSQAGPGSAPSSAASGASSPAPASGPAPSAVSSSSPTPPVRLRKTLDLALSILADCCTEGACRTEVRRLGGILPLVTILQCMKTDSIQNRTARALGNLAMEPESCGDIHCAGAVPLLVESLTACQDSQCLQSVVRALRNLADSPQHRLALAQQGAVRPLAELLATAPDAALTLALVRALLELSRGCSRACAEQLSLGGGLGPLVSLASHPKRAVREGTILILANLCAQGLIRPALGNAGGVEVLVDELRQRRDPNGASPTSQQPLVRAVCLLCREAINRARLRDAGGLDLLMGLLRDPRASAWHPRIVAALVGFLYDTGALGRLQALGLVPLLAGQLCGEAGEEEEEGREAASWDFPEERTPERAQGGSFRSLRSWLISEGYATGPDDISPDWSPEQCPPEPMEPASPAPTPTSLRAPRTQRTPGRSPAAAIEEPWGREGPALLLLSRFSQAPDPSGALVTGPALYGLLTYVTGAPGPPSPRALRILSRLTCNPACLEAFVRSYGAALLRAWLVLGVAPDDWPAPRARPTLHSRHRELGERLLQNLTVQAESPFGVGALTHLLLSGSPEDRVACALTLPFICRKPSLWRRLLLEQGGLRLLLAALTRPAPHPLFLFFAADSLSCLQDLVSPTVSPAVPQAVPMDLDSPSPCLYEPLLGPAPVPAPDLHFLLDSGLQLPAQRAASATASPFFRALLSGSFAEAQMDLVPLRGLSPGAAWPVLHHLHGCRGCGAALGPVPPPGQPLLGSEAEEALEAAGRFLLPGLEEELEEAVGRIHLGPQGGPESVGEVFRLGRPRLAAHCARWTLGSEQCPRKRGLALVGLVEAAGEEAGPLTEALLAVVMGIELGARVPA
Described as above.

Assay [2] has as its target Myc-USP7 (full-length) (human) (UniProt Q93009). The description is as above.
The target of assay [3] is endogenous USP7 (ubiquitin-specific processing protease 7) (human (endogenous in 786-O)) (UniProt Q93009). The description is as above.
A further assay deals with GST-USP7 (human) (UniProt Q93009). Briefly: pull-down; GST or GST-USP7 retained on glutathione Sepharose beads, incubated 2 hours at 25°C with His-ARMC5, eluted at 100°C, Western blot; both purified.

Take “endogenous USP7 (ubiquitin-specific processing protease 7) (from UniProt Q93009 1-1102) (enzyme)”: the binding entry (in the assay with Flag-ARMC5 (human); in assay [1]) was “binds” each time.

B1: endogenous ARMC5 (protein, UniProt Q96C12 1-935)
chain: MAAAKPTLTDSLSFCLAQLAAAAGEALGGEKDPATNETPLSRALLALRTRHIKAAGGIERFRARGGLRPLLALLRRAAAAGSAPSQAGPGSAPSSAASGASSPAPASGPAPSAVSSSSPTPPVRLRKTLDLALSILADCCTEGACRTEVRRLGGILPLVTILQCMKTDSIQNRTARALGNLAMEPESCGDIHCAGAVPLLVESLTACQDSQCLQSVVRALRNLADSPQHRLALAQQGAVRPLAELLATAPDAALTLALVRALLELSRGCSRACAEQLSLGGGLGPLVSLASHPKRAVREGTILILANLCAQGLIRPALGNAGGVEVLVDELRQRRDPNGASPTSQQPLVRAVCLLCREAINRARLRDAGGLDLLMGLLRDPRASAWHPRIVAALVGFLYDTGALGRLQALGLVPLLAGQLCGEAGEEEEEGREAASWDFPEERTPERAQGGSFRSLRSWLISEGYATGPDDISPDWSPEQCPPEPMEPASPAPTPTSLRAPRTQRTPGRSPAAAIEEPWGREGPALLLLSRFSQAPDPSGALVTGPALYGLLTYVTGAPGPPSPRALRILSRLTCNPACLEAFVRSYGAALLRAWLVLGVAPDDWPAPRARPTLHSRHRELGERLLQNLTVQAESPFGVGALTHLLLSGSPEDRVACALTLPFICRKPSLWRRLLLEQGGLRLLLAALTRPAPHPLFLFFAADSLSCLQDLVSPTVSPAVPQAVPMDLDSPSPCLYEPLLGPAPVPAPDLHFLLDSGLQLPAQRAASATASPFFRALLSGSFAEAQMDLVPLRGLSPGAAWPVLHHLHGCRGCGAALGPVPPPGQPLLGSEAEEALEAAGRFLLPGLEEELEEAVGRIHLGPQGGPESVGEVFRLGRPRLAAHCARWTLGSEQCPRKRGLALVGLVEAAGEEAGPLTEALLAVVMGIELGARVPA
B1: the binding entry in assay [2] and in assay [3] was “binds” in each case.

B2: Flag-ARMC5 (protein, UniProt Q96C12 1-935)
chain: MAAAKPTLTDSLSFCLAQLAAAAGEALGGEKDPATNETPLSRALLALRTRHIKAAGGIERFRARGGLRPLLALLRRAAAAGSAPSQAGPGSAPSSAASGASSPAPASGPAPSAVSSSSPTPPVRLRKTLDLALSILADCCTEGACRTEVRRLGGILPLVTILQCMKTDSIQNRTARALGNLAMEPESCGDIHCAGAVPLLVESLTACQDSQCLQSVVRALRNLADSPQHRLALAQQGAVRPLAELLATAPDAALTLALVRALLELSRGCSRACAEQLSLGGGLGPLVSLASHPKRAVREGTILILANLCAQGLIRPALGNAGGVEVLVDELRQRRDPNGASPTSQQPLVRAVCLLCREAINRARLRDAGGLDLLMGLLRDPRASAWHPRIVAALVGFLYDTGALGRLQALGLVPLLAGQLCGEAGEEEEEGREAASWDFPEERTPERAQGGSFRSLRSWLISEGYATGPDDISPDWSPEQCPPEPMEPASPAPTPTSLRAPRTQRTPGRSPAAAIEEPWGREGPALLLLSRFSQAPDPSGALVTGPALYGLLTYVTGAPGPPSPRALRILSRLTCNPACLEAFVRSYGAALLRAWLVLGVAPDDWPAPRARPTLHSRHRELGERLLQNLTVQAESPFGVGALTHLLLSGSPEDRVACALTLPFICRKPSLWRRLLLEQGGLRLLLAALTRPAPHPLFLFFAADSLSCLQDLVSPTVSPAVPQAVPMDLDSPSPCLYEPLLGPAPVPAPDLHFLLDSGLQLPAQRAASATASPFFRALLSGSFAEAQMDLVPLRGLSPGAAWPVLHHLHGCRGCGAALGPVPPPGQPLLGSEAEEALEAAGRFLLPGLEEELEEAVGRIHLGPQGGPESVGEVFRLGRPRLAAHCARWTLGSEQCPRKRGLALVGLVEAAGEEAGPLTEALLAVVMGIELGARVPA
Consider B2, for which, in assay [2], the binding result is “binds”.

B3: His-ARMC5 (protein, UniProt Q96C12 1-935)
chain: MAAAKPTLTDSLSFCLAQLAAAAGEALGGEKDPATNETPLSRALLALRTRHIKAAGGIERFRARGGLRPLLALLRRAAAAGSAPSQAGPGSAPSSAASGASSPAPASGPAPSAVSSSSPTPPVRLRKTLDLALSILADCCTEGACRTEVRRLGGILPLVTILQCMKTDSIQNRTARALGNLAMEPESCGDIHCAGAVPLLVESLTACQDSQCLQSVVRALRNLADSPQHRLALAQQGAVRPLAELLATAPDAALTLALVRALLELSRGCSRACAEQLSLGGGLGPLVSLASHPKRAVREGTILILANLCAQGLIRPALGNAGGVEVLVDELRQRRDPNGASPTSQQPLVRAVCLLCREAINRARLRDAGGLDLLMGLLRDPRASAWHPRIVAALVGFLYDTGALGRLQALGLVPLLAGQLCGEAGEEEEEGREAASWDFPEERTPERAQGGSFRSLRSWLISEGYATGPDDISPDWSPEQCPPEPMEPASPAPTPTSLRAPRTQRTPGRSPAAAIEEPWGREGPALLLLSRFSQAPDPSGALVTGPALYGLLTYVTGAPGPPSPRALRILSRLTCNPACLEAFVRSYGAALLRAWLVLGVAPDDWPAPRARPTLHSRHRELGERLLQNLTVQAESPFGVGALTHLLLSGSPEDRVACALTLPFICRKPSLWRRLLLEQGGLRLLLAALTRPAPHPLFLFFAADSLSCLQDLVSPTVSPAVPQAVPMDLDSPSPCLYEPLLGPAPVPAPDLHFLLDSGLQLPAQRAASATASPFFRALLSGSFAEAQMDLVPLRGLSPGAAWPVLHHLHGCRGCGAALGPVPPPGQPLLGSEAEEALEAAGRFLLPGLEEELEEAVGRIHLGPQGGPESVGEVFRLGRPRLAAHCARWTLGSEQCPRKRGLALVGLVEAAGEEAGPLTEALLAVVMGIELGARVPA
Take B3: the binding entry with GST-USP7 (human) is “binds”.
